## Screening data, single-dose tests

By UniProt entry, the sequences of proteins in these tests, tags left out. Residues count along the entry.
UniProt Q8IDJ8, 1-583: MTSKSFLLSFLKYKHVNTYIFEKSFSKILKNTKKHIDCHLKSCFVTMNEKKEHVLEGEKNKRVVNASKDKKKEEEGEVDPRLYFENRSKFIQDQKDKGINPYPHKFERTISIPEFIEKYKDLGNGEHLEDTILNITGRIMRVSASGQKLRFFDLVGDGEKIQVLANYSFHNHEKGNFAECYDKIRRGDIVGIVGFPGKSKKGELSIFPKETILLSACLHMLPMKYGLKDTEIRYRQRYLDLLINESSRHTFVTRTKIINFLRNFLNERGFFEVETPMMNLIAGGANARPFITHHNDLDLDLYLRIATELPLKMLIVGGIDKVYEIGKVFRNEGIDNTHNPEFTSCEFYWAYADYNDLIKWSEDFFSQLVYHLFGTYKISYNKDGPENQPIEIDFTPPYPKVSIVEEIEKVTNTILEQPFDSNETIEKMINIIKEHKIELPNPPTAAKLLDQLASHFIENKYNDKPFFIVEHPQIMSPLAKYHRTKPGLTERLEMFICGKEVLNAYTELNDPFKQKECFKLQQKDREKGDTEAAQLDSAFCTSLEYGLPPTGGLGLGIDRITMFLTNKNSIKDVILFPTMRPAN
UniProt P9WPC5, whole entry: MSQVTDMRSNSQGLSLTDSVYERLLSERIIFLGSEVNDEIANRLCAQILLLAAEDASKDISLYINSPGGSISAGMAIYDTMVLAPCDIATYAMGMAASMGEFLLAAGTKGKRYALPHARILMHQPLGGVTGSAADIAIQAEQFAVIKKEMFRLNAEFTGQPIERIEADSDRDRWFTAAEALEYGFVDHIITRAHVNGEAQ
UniProt P9WPC3, whole entry partner: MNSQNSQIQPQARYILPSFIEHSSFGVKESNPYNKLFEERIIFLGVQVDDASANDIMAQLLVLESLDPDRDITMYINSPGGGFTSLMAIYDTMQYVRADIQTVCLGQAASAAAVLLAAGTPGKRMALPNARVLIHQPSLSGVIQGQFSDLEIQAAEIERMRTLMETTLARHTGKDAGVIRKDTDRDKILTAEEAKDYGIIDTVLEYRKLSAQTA

From ChEMBL document CHEMBL3988442, “University of Dundee, Small-Polar-MMV Screening Library” (2021).

PfKRS1: 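Enzyme assay of the cytosolic lysyl-tRNA synthetase in 384-well plates, read by luminescence. Target: Lysine-tRNA ligase, Plasmodium falciparum 3D7 (UniProt Q8IDJ8). Tested at 30 µM. Higher reads as stronger inhibition, judged from the few compounds that gave an IC50. About 69,000 compounds were tested under these conditions; 0.071% (about 49) showed 50% or more at least once.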
ClpP1P2: 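Protease assay of ClpP1P2, read by the AMC dye that it sets free. Target: ClpP1P2, Mycobacterium tuberculosis (UniProt P9WPC5 and UniProt P9WPC3). Compounds at 50 µM. Direction is inferred from only a few compounds that gave an IC50; most scored high, so higher reads as stronger inhibition. Most other retested compounds had strongly negative values. Of about 69,000 compounds tested this way, about 10 (0.015%) reached 50% or more in at least one test.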

Values are the deposited “Percent Effect”, in %.
The record does not define 0% and 100%; most values in the screen are far below 50% and negative numbers occur (in some assays of this library far below -100).
The compounds are a random part of those screened.

compound,PfKRS1,ClpP1P2
COCCC(C)NC(=O)c1cc(Br)c2c(c1)OCCO2 (configuration not stated),1.241,-23.41
CC(C)c1n[nH]c(C2CN(C(=O)COc3ccc(F)cc3)CCO2)n1 (configuration not stated),3.217,-1.177
CCS(=O)(=O)N1CCC2(CC1)CN(c1cccnc1)C(=O)CO2,3.711,-9.256
CN1CCc2[nH]cnc2C12CCN(Cc1ccc3nsnc3c1)CC2,0.503,2.448
CC(=O)Nc1ccc2c(c1)C1(CCOCC1)C(=O)N2c1ccsc1,1.972,-2.742
Cc1nc(NCC(O)CN2CCCCCC2)c2c(C)nn(C)c2n1 (configuration not stated),3.236,-19.84
COC(C)(CNS(=O)(=O)c1cccnc1)c1ccccc1F (configuration not stated),0.6629,-10.48
CN(CCc1ccccn1)C(=O)Nc1cccnc1N1CCCC1,-3.083,-6.161
Cc1cc(C)n(C2CCCN(C(=O)Cc3cn4ccsc4n3)C2)n1 (configuration not stated),0.9973,-22.46
O=C(O)C1CCCN(C(=O)CCn2ccc3c(Br)cccc32)C1 (configuration not stated),4.83,-16.92
CC1(C)CN(C(CNC2=NCCN2)c2ccc(Cl)cc2)CCO1 (configuration not stated),0.5644,0.9116
O=C1CCN(CCCS(=O)(=O)c2ccc(Cl)cc2)CCN1,1.528,-1.572
CCCN(Cc1ccc(OC)nc1)Cc1ccccc1OC,-0.4855,9.362
CC(=O)c1cccc(NC(=O)Cn2cnc(-c3cccs3)cc2=O)c1,0.6677,0.5642
CC(C)c1n[nH]c(C2CN(C(=O)c3cc4c(s3)CCC4)CCO2)n1 (configuration not stated),0.2894,-23.49
CCCN1CCCn2c(nc(CNC(=O)c3nccn3C)cc2=O)C1,0.1049,3.373
Cc1ccc(C(=O)N(C)Cc2cc(C)on2)cn1,1.482,-108.4
CC(NC(=O)Cn1cccnc1=O)c1ccc(C(F)(F)F)cc1 (configuration not stated),-0.5042,5.843
NC(=O)CN1CC2(CCC1=O)CCN(C(=O)c1ccccc1F)CC2,2.957,-13.21
Cc1ncc(-c2ccnc(NCCc3ccc(F)cc3)n2)c(=O)[nH]1,5.124,5.634
CCCC(C)(O)c1cc(C(N)=O)no1 (configuration not stated),8.987,4.765
O=C(Nc1cc(C(F)(F)F)c[nH]c1=O)C1CCNCC1,2.377,5.955
COc1ccc(C(C)NCCC(N)=O)cc1F (configuration not stated),0.08875,13.48
O=C(Nc1ccccc1OC1CCOC1)c1cc[nH]n1 (configuration not stated),-1.287,2.972
CNc1cncc(C2CCCN2C(=O)Cn2ccnc2C)n1 (configuration not stated),-0.1424,-202.3
COc1cc(N2CC[C@@H]3O[C@@H](c4ccncn4)C[C@H]3C2)ncn1,-3.924,9.611

Some entries from above, unchanged:

compound	PfKRS1	ClpP1P2
Cc1ccc(C(=O)N(C)Cc2cc(C)on2)cn1	1.482	-108.4
O=C(O)C1CCCN(C(=O)CCn2ccc3c(Br)cccc32)C1 (configuration not stated)	4.83	-16.92